No constants are given. Whether binding was seen depends on the method and setting. Binding seen in cells or lysates may run through a third protein. Here binding means that the protein was enriched with, or labelled near, the bait; the list need not be complete.
B1: TDRD9 (tudor domain protein) (protein, UniProt Q14BI7 1-1383)
chain: MLRKLTVDQINDWFTIGKTVTNVELLGLPPAFPAEAPREEVQRSEEVPNEDPTAQAQVPVKATAPARPASTSGRSLSQRSSEMEYINKYRQLEEQELDIYGQDQPPSGPGLRSPLAKLSNVACIPETTYKYPDLPINRCKEEVISLIESNSVVIIHGATGSGKSTQLPQYVLDHYTQRSAFCNIVVTQPRKIGASSIARWISKERSWTLGGLVGYQVGLEKIATEDTRLIYMTTGVLLQKIVSAKSLMEFTHIFIDEVHERTEEMDFLLLVVRKLLRTNSRFVKVVLMSATINCKQFADYFAVPVQNKMNPAYVFEVEGKPHAIEEYYLNDLGHIYHSGLPYRLEEPVITKDVYEVAVSLIQMFDDLDMKESGNKTWSGAQFVSERSSVLVFLPGLGEINYMHELLTNMIHKRLQVYPLHSSVTLEEQNNVFLSPVPGYRKIILSTNIAESSVTVPDVKYVIDFCLTRTLVCDEDTNYQSLRLSWASKTSCDQRKGRAGRVSKGYCYRLIPRDFWDSAIPDHVVPEMLRCPLGSTILKVKLLDMGEPRALLATALSPPSLSDIERTILLLKEVGALAVSGQREDENPHDGELTFLGRVLAQLPVSQQLGKLVVLGHVFGCLDECLIIAAALSLKNFFTMPFRQHLDGYRNKVHFSGSSRSDCLALVEAFRAWQACRQRGELRRPKDELDWGRLNYIQIKRIREVAELYEELKNRISQFNMFVGPHHPVLDQEYPYKQRFILQVVLAGAFYPNYFTFGQPDEEMAVRELAGKDPKTTVVLKHIPPYGFLYYKQLQSLFRQCGQVKSIVFDGAKAFVEFSRNPTERFKTLPAVNLAVKMSQLKVSLELSVHAAEEIEGKVQGGSVSKLRNTRVNVDFQKQTVDPMQVSFNTLDRPRTVADLLLTIDVTEVVEVGHFWGYRIDERNAELLKQLTAEINRLELVPLPIHPHPDLVCLAPFTDYNKESYFRAQILYVSGNSAEVFFVDYGNRSHVDLDLLREIPCQFLELPFQALEFKICKMRPSAKSLICGEHWSGGAHGRFAALVGGCPLLVKVFSIVHSVLHVDVYRYSGAQDAVNVRDVLIREGYAELAEESYESKQSYEVLKGFFAKSVDTMPDGSVSSPLKDDEKHLLRILLESFASNRLGAPNCKAVLHGPFNPYELKCHSLTRISKFRCVWIEKESINSVVISDSPADLHQRMLVAASLSVNETGSTMLLRETSLMPHIPGLPALLSMLFAPVMELRVDREGKCYTGVLCGLGWNSATEAPILPEHDIELAFDVRLNVEDIVEINILRAAINKLVCDGPNGSKYLGPERIAQLQENARQKLLGLFCRLKPREKITPQWHEKPYEWNQVDPRLIMEQAEPEGSPGKSTSLYQLHTPVVLSP
B2: MAEL (repressor of transposable elements) (protein, UniProt Q8BVN9 1-434)
chain: MPNRRASRNAYYFFVQEKIPELRRRGLPVARVADAIPYCSADWALLREDEKEKYSEMAREWRAAQGKDSGPSEKQKLVSTPLRRPGMLVPKPSISPPDMSNLSIKSDQALLGGIFYFLNIFSHGELPPHCEQRFLPCEIGCVKYSLQEGIMADFHSFIHPGEIPRGFRFHCQAASDSSHKIPISNFEFGHDQATVLQNLYKFIHPNPGNWPPIYCKSDDRARVNWCLKRMERASEIRQDLELLTVEDLVVGIYQQKFLKEPSKTWVRSLLDVAMWDYSSNTRCKWHEENDILFCALAVCKKIAYCISNSLATLFGIQLTGAHVPLQDYEASNSVTPKMVVLDAGRYQKLRVESPGFCHFNSYNQEQRSNTSTGYYPSGVKISGPHSSVRGRGITRLLESISNSSNNIHRFSSCETSLSPYTPQKDGYKPFSSFS
B3: SYCP1 (transverse filament protein), endogenous (protein, UniProt Q62209 1-993)
chain: MEKQKPFTLFVPPRLSSSQVSAVKPQTAGGDSNYFKTANKCTEGDFGVPFTMSSRENIDKDPAFQKLSILPMLEQVANSGSCHYQEGVNDSDFENSEPMSRLYSKLYKEAEKIKKWKVSIESELKQKENKLQENRKIIEAQRKAIQELQFENEKVSLKLEEEIQENKDLIKENNATIHWCNLLKETCARSAEKTNKYEYEREETRQVYVDLNSNIEKMILAFEELRVQAENARLEMHFKLKEDHEKIQHLEEEYQKEVNNKENQVSELLIQSAEKENKMKDLTFLLEESRDKANQLEEKTKLQDENLKELSEKKDHLTSELEDIKMSMQRSMSTQKALEEDLQIATKTISQLTEVKEAQMEELNKAKTTHSFVVTELKATTCTLEELLRTEQQRLEKNEDQLKLITVELQKKSNELEEMTKFKNNKEVELEELKNILAEDQKLLDEKKQVEKLAEELQEKEQELTFLLETREKEVHDLQEQVTVTKTSEQHYLKQVEEMKTELEKEKLKNTELTASCDMLLLENKKFVQEASDMALELKKHQEDIINCKKQEERLLKQIENLEEKEMHLRDELESVRKEFIQQGDEVKCKLDKSEENARSIECEVLKKEKQMKILESKCNNLKKQVENKSKNIEELHQENKTLKKKSSAEIKQLNAYEIKVSKLELELESTKQRFEEMTNNYQKEIENKKISEGKLLGEVEKAKATVDEAVKLQKEIDLRCQHKIAEMVALMEKHKHQYDKIVEERDSELGLYKNREQEQSSAKIALETELSNIRNELVSLKKQLEIEKEEKEKLKMAKENTAILKDKKDKKIQASLLESPEATSWKFDSKTTPSQNISRLSSSMDSGKSKDNRDNLRASAKSILPTTVTKEYTVKTPTKKSIYQRENKYIPTGGSNKKRKTAFEFDVNSDSSETADLLSLVSEEDVSNRLYDNNPPDSHLLVKTPKQTPLSLSTPASFMKFGSLKKMREDRWTTIAKIDRKRRLKEAEKLFS
B4: TRIP13 (AAA-ATPase), endogenous (protein, UniProt Q3UA06 1-432)
chain: MDEAVGDLKQALPCVAESPAVHVEVLQRSGSTAKKEDIKSSVYRLLNRHNIVFGDYVWTEFDDPFLSRNVQSVSIVDTELKAKDPQPIDLSACTIALHIFQLNEEGPSSENLDEETENIIAASHWVLPAAEFHGLWDSLVYDVEVKSHLLDYVMTTVLFSDKNVDSNLITWNRVVLLHGPPGTGKTSLCKALAQKLTIRLSSRYRYGQLIEINSHSLFSKWFSESGKLVTKMFQKIQDLIDDKEALVFVLIDEVESLTAARNACRAGAEPSDAIRVVNAVLTQIDQIKRHSNVVILTTSNITEKIDVAFVDRADIKQYIGPPSAAAIFKIYLSCLEELMKCQIIYPRQQLLTLRELEMIGFIENNVSKLSLLLSEISRKSEGLSGRVLRKLPFLAHALYIQAPSVTIEGFLQALSLAVDKQFEEKKKLSAYV
B5: CCT2 (protein, UniProt P80314 1-535)
chain: MASLSLAPVNIFKAGADEERAETARLSSFIGAIAIGDLVKSTLGPKGMDKILLSSGRDAALMVTNDGATILKNIGVDNPAAKVLVDMSRVQDDEVGDGTTSVTVLAAELLREAESLIAKKIHPQTIISGWREATKAAREALLSSAVDHGSDEARFWQDLMNIAGTTLSSKLLTHHKDHFTKLAVEAVLRLKGSGNLEAIHVIKKLGGSLADSYLDEGFLLDKKIGVNQPKRIENAKILIANTGMDTDKIKIFGSRVRVDSTAKVAEIEHAEKEKMKEKVERILKHGINCFINRQLIYNYPEQLFGAAGVMAIEHADFAGVERLALVTGGEIASTFDHPELVKLGSCKLIEEVMIGEDKLIHFSGVALGEACTIVLRGATQQILDEAERSLHDALCVLAQTVKDPRTVYGGGCSEMLMAHAVTQLANRTPGKEAVAMESFAKALRMLPTIIADNAGYDSADLVAQLRAAHSEGHITAGLDMKEGTIGDMAVLGITESFQVKRQVLLSAAEAAEVILRVDNIIKAAPRKRVPDHHPC
B6: TRIM36 (protein, UniProt Q80WG7 1-729)
chain: MSESEEISEFGYIMELLAKGKVTIKNIEKELICPACKELFTHPLILPCQHSVCHKCVKELLLSLDDSFNDVASDSSNQSSPRLRLTSPSMDKIDKINRPGWKRNSLTPRPTTFPCPGCEHDVDLGERGVSGLFRNFTLETIVERYRQAARAATAIMCDLCKPPPQESTKSCMDCSASYCNECFKIYHPWGTVKAQHEYVGPTTNFRPKVLMCPEHETERINMYCELCRRPVCHLCKLGGNHSNHRVTTMSSAYKTLKEKLSKDIDFLIGKESQVKSQISELNLLMKETECNGERAKEEALAHFEKLFEILEDRKSSVLKAIDASKKLRLDKFHTQMEEYQGLLENNGLVGYAQEVLKETDQSCFVQTAKQLHLRIQKATESLKSFRPAAQASFEDYVVNISKQTEVLGELSFFSSGIDIPEINEEQSKVYNNALIDWHHPEKDKADSYVLEYRKINRDEEMISWNEIEVHGTSKVVSNLESNSPYAFRVRAYRGSICSPCSRELILHTPPAPVFSFLFDEKCGYNTEHLLLNLKRDRVESRAGFNVLLAAERIQVGHYTSLDYIIGDVGVTKGKHFWACRVEPYSYLVKVGVASSDKLQEWLRSPRDAASPRYEQDSGHDSGSEDACFDSSQPFTLVTIGMKKFFIPKSPTSSNEPENRVLPMPTSIGIFLDCDKGKVSFYDMDHMKCLYERQVDCSHTMYPAFALMGSGGIQLEEAITAKYLEYEEDV

By UniProt entry, the sequences of proteins in these tests, tags left out.
UniProt Q9CWH6: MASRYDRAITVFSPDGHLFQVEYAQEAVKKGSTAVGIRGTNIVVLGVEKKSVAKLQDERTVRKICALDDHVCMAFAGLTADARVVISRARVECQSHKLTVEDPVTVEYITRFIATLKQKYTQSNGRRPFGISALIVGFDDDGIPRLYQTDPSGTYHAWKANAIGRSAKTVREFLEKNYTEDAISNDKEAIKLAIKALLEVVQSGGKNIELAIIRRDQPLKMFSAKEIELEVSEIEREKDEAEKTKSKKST

The binders below were run against PSMA8 (testis-specific proteasomal subunit α4s), endogenous (mouse (endogenous in testis)) (UniProt Q9CWH6) (assay: affinity purification with mass spectrometry; anti-PSMA8 antibodies R1 and R2 (detect PSMA7/8) bound to sepharose beads; 20 mg wild-type mouse testis extract in 50mM Tris HCl (pH8), 500mM NaCl, 1mM EDTA, 1% tritonX-100, o/n; buffer lacking ATP and glycerol; eluted in 100 mM glycine pH3).
With B1 the binding was “binds”. In the case of B2, the binding is reported as “binds”. With B3 the binding was “binds”. For B4, the binding was “binds”. B5 was tested, and the binding was “binds”. In the case of B6, the binding is reported as “binds”.
